Test [1] addresses T1, CD40 ligand (UniProt P29965 108-261, limits assumed).
T1 sequence (looked up): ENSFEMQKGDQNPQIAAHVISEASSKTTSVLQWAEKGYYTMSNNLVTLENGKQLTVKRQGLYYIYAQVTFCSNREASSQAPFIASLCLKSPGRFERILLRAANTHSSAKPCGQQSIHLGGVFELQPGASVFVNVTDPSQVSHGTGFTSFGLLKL
In words: Alphascreen proximity assay, peptide titrated; blocked interaction: CD40L with CD40.

Test [2] has as its target T1, CD40 ligand. Briefly: chemiluminescent proximity assay.
The target in test [3] is T1, CD40 ligand. Briefly: Octet Red label-free (BLI). (BLI is a label-free optical method that tracks binding on a fibre tip over time.)
Test [4] has as its target T1, CD40 ligand. Briefly: primary biopanning with CD40L, phage display.
Test [5] concerns the target T1, CD40 ligand. Briefly: Alphascreen proximity assay, peptide titrated against 0.75nM CD40L; blocked interaction: CD40L with CD40. Background: In Alpha technology, singlet oxygen from a donor bead excites a nearby acceptor bead.
Test [6] has as its target T1, CD40 ligand. Briefly: Alphascreen proximity assay, peptide dimer titrated against 0.75nM CD40L; blocked interaction: CD40L with CD40.

This passage reports binding results from patent publication US20130266605A1, “PEPTIDE INHIBITORS OF CD40L SIGNALING AND USES THEREFOR” (PHYLOGICA LIMITED, priority 2010, published 2013).

No constants are given. Whether binding was seen depends on the method and setting. Some results given as binding are weak or reduced against the parent protein; the word gives no strength.

B1: Cys_M1_6S-Cys_M1_9S heterodimer (peptide)
peptide 1: CHPFSIKNVFSIWNFFSVY
peptide 2: CPPRYNLFFLFRFYSSFRRDYLYF
modifications: disulfide through the N-terminal cysteine
In the case of B1, the binding entry with CD40 ligand [1] and with CD40 ligand [2] was “binds” throughout.
For the molecule HSFVLFGVNVPFNIIDFQMRVKC (Base peptide) [CD40L M1_42], the binding entry with CD40 ligand [3] and with CD40 ligand [4] was “binds” each time.
In the case of PPRYNLFFLFRFYCSFRRDYLYF (Base peptide) [CD40L M1_9], the binding result with CD40 ligand [3] and in the test with CD40 ligand [4] was “binds” throughout.
As for CHPFSIKNVFSIWNFFSVY [Cys_M1_6S], the binding entry in the test with CD40 ligand [1] and with CD40 ligand [5] was “binds” throughout.
Take LPFVPYRSHVLKYGWFFPVQWSIFAVLPFQYLHRCR (Base peptide) [CD40L M1_18]: the binding entry with CD40 ligand [3] and with CD40 ligand [4] was “binds” throughout.

B2: Cys_M1_6S-Cys_M1_189S heterodimer (peptide)
peptide 1: CHPFSIKNVFSIWNFFSVY
peptide 2: CLLLFFFSPPFSIFSFSLTTLS
modifications: disulfide through the N-terminal cysteine
Take B2: the binding entry with CD40 ligand [1], with CD40 ligand [6] and with CD40 ligand [2] was “binds” throughout.
Turning to CHPFSIKNVFSIWNFFSVY (disulfide between the N-terminal cysteines of the two chains) [Cys_M1_6S homodimer], the binding result in the test with CD40 ligand [1] and with CD40 ligand [2] was “binds” in each case.
